Reference: patent US6555356B2, “Methods for microbial regulation” (Unisearch Limited, priority 1995, dated 2003)
Some entries share one result that the patent states for a list of compounds. At least one structure is not confirmed: it was looked up by name or label, or the drawing left a doubt.

System: Chromobacterium violencia
Experiment: Growth of Chromobacterium violencia
Format: cell-based
Details: 100 μg/ml, listed as compound 2
Description: The effect on growth of Serratia liquefaciens by furanone compounds was also measured in liquid LB medium by comparing growth of cultures without the addition of compounds versus growth of cultures with added furanone compounds (100 μg/ml of compounds 1-13 (FIG. 3) in separate cultures). Growth was measured as optical density at 450 nm and followed over a 48 hr period.
A mutant of Chromobacterium violencia negative for the HSL auto inducer was used in the assay. The strain was pour plated in LB medium at high density and wells were punched after the media had set. Sterile, filtered supernatants from various HSL producing strains were added to the wells. Plates were incubated at 30° C. and observed for the formation of purple zones (due to […]) around the wells. The effects of furanone compounds 1 and 2 (FIG. 3) were assessed by running this assay on plates of LB medium containing furanone compounds at a concentration of 100 μg/ml. The effects of the compounds on growth of Chromobacterium were assessed as above.

CCCCC1=C(Br)C(=CBr)OC1=O [Compound 2]
Effect on bacterial growth: unaffected
